Test [1] deals with T1, Gnd1-V5 (6-phosphogluconate dehydrogenase) (S. cerevisiae) (UniProt P38720).
T1 sequence: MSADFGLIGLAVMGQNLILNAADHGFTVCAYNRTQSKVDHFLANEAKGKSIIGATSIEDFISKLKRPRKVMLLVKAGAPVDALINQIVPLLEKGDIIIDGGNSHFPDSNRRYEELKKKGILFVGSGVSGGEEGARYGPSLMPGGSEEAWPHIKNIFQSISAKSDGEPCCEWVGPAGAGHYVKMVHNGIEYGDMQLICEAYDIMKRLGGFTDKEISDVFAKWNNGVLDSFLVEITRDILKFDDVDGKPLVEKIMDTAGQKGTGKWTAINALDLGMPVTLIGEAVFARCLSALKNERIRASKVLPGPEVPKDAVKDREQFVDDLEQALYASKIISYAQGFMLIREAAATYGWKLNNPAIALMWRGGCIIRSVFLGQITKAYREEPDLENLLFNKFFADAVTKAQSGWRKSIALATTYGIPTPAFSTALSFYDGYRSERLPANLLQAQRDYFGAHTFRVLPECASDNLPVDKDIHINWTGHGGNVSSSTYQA
Kind of test: co-IP.

The target of test [2] is T2, untagged Cdc19 (pyruvate kinase, endogenous) (S. cerevisiae) (UniProt P00549).
T2 sequence: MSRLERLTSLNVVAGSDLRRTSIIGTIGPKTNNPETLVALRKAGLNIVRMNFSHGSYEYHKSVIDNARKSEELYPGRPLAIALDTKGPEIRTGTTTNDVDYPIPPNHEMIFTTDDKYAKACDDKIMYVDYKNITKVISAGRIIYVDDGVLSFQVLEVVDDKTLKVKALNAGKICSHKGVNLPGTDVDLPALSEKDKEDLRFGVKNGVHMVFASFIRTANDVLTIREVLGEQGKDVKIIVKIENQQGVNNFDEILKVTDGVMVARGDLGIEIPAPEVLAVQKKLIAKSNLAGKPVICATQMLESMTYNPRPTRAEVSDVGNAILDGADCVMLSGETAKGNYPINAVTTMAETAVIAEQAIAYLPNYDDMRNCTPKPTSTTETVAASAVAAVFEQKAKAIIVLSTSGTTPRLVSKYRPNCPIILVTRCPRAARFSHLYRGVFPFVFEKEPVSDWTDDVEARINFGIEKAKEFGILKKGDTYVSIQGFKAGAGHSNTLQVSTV
Briefly: co-IP.

Test [3] addresses untagged wild-type Tsa1 (endogenous) (S. cerevisiae) (UniProt P34760). Briefly: non-reducing SDS-PAGE with immunoblot. (In western blotting, separated proteins are transferred to a membrane and probed.)
Test [4] deals with T3, Tsa1^WT-HA (peroxiredoxin Tsa1, single C-terminal HA tag at the endogenous locus) (S. cerevisiae) (UniProt P34760).
T3 sequence: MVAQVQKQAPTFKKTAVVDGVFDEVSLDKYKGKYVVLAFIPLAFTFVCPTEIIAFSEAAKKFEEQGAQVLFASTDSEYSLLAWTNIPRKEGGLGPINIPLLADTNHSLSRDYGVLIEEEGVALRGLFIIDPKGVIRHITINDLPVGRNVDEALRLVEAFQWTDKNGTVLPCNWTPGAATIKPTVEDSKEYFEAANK
Kind of test: non-reducing SDS-PAGE with immunoblot.

No constants are given. Whether binding was seen depends on the method and setting. For some of these results: In cells and extracts the contact can be indirect. Some binding calls cover weakened binding; strength is not graded here. Sequences can lack the tags named with a protein.

B1: untagged wild-type Tsa1 (endogenous) (protein, UniProt P34760 1-196)
chain: T3 sequence
For B1, the binding entry in test [1], in test [2] and in test [3] was “binds” each time.

B2: Srx1 (sulfiredoxin, endogenous) (enzyme, UniProt P36077 1-127)
chain: MSLQSNSVKPTEIPLSEIRRPLAPVLDPQKIDAMVATMKGIPTASKTCSLEQAEAAASAGELPPVDVLGVRVKGQTLYYAFGGCHRLQAYDRRARETQNAAFPVRCRVLPATPRQIRMYLGSSLDIE
With B2, in test [4], the binding entry is recorded as “binds”.

These data come from article doi:10.1101/2023.12.13.571451 (bioRxiv, 2023).
